“And” between values parts separate entries of the source, which are not always exact repeats. Equal entries are not always repeated. Some of the results follow. Repeats in this data set agree poorly, so a single value says little.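 HEK293T cells were given each compound shortly before transfection with a reporter in which red mCherry is followed by the SARS-CoV-2 frameshift element and then GFP in the −1 frame, so GFP appears only after frameshifting.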
tested on: SARS-CoV-2 -1 PRF reporter mCherry-FSE-GFP(-1); experiment: mCherry (red) intensity as percent of control; higher = higher upstream reporter expression; conditions: 10 µM; 24 h; HEK293T

Row | SMILES | mCherry
1 | CN1N=C2CCN(C(=O)[C@@H](COCc3ccccc3)NC(=O)C(C)(C)N)C[C@@]2(Cc2ccccc2)C1=O [capromorelin] | 83.9%
2 | CCCCc1ccc(C(N)=O)nc1 [bupicomide] | 117%
3 | Cn1c(NCCN(CCO)CCCc2ccc([N+](=O)[O-])cc2)cc(=O)n(C)c1=O [nifekalant] | 85.1%
4 | NCCCC(O)(P(=O)(O)O)P(=O)(O)O | 80.9%
5 | CCCCN(CCCC)CCC(O)c1cc2c(Cl)cc(Cl)cc2c2cc(C(F)(F)F)ccc12 (centres undefined) [halofantrine] | 116%
6 | NC(=O)CN1C(=O)COc2ccccc21 [paraxazone] | 94.8%
7 | CC[C@H](c1ccc(O)cc1)[C@@H](CC)c1ccc(O)cc1 [hexestrol] | 108% and 104%
8 | c1ccc(Cn2c(N3CCNCC3)nc3ccccc32)cc1 [lerisetron] | 69.8%
9 | COc1ccnc(C[S+]([O-])c2nc3cc(OC(F)F)ccc3[nH]2)c1OC (centres undefined) | 87.6%
10 | COc1cc2c(cc1OC)-c1c/c(=N\c3c(C)cc(C)cc3C)n(C)c(=O)n1CC2 [trequinsin] | 72.2%
11 | O=C(O)c1cn(C2CC2)c2cc(N3CCNCC3)c(F)cc2c1=O [ciprofloxacin] | 103% and 86.4%
12 | CC(c1ccccc1)C1Nc2cc(Cl)c(S(N)(=O)=O)cc2S(=O)(=O)N1 (centres undefined) [bemetizide] | 74.9%
13 | CN(C)CCn1cnc2c1c(=O)n(C)c(=O)n2C [dimethazan] | 89.8%
14 | CC(=O)O[C@H]1C(=O)[C@@]2(C)[C@H]([C@H](OC(=O)c3ccccc3)[C@]3(O)C[C@H](OC(=O)[C@H](O)[C@@H](NC(=O)c4ccccc4)c4ccccc4)C(C)=C1C3(C)C)[C@]1(OC(C)=O)CO[C@@H]1C[C@@H]2O [paclitaxel] | 233%

2 records picked at random from those above, as already listed:
Row | SMILES | mCherry
2 | CCCCc1ccc(C(N)=O)nc1 [bupicomide] | 117%
13 | CN(C)CCn1cnc2c1c(=O)n(C)c(=O)n2C [dimethazan] | 89.8%
